From paper PMC11462610, “PpBBX32 and PpZAT5 modulate temperature-dependent and tissue-specific anthocyanin accumulation in peach fruit”
A negative result means that nothing was seen under these conditions. At least one verdict was read from the data and is not stated in words by the source. Protein sequences can lack the tags named with them.

Target: T1, PpBBX32 (Prunus persica) (UniProt A0A251PTV0)
T1 sequence (looked up): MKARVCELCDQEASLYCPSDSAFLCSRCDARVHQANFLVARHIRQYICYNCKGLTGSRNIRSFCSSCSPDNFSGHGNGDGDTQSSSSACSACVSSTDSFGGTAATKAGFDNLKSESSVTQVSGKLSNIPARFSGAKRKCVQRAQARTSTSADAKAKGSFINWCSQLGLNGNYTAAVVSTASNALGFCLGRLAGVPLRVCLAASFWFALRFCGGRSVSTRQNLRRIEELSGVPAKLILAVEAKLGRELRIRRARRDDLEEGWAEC
Assay: EMSA
Settings: LightShift Chemiluminescent EMSA kit (Thermo), biotin-labeled probes; pH and temperature not stated; recombinant protein; residues 1-264; protein details: N-terminal His-trigger factor (pColdTF fusion)

## CAGCTGTGACGTTCAAACCATGTCCACTGACACTA (double strand) [proPpMYB10.1 G-box1&2-mut]
  binding result: no binding
